Data published in the supplement of paper PMC12819154, “High-throughput peptide-centric local stability assay extends protein–ligand identification to membrane proteins, tissues and bacteria” (Nature Structural & Molecular Biology, 2025).
The list shows a part of the results. Most values lie at the level of the controls, where differences are scatter.

By UniProt entry, the sequences of proteins in these tests, tags left out. Where a name states a change or a piece, a line headed by the entry shows the natural chain unless it says otherwise.
UniProt P55081: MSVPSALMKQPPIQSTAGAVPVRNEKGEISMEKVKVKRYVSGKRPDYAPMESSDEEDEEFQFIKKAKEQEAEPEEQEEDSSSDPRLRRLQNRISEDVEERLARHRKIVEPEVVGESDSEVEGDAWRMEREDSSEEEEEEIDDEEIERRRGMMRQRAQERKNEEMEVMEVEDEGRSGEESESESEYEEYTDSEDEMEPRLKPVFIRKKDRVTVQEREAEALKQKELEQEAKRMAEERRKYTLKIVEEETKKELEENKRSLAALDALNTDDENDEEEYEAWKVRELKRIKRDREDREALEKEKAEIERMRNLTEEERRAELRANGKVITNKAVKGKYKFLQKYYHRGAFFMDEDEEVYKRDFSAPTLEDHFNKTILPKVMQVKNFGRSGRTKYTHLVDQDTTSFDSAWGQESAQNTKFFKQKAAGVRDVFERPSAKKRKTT
UniProt P78337, whole entry: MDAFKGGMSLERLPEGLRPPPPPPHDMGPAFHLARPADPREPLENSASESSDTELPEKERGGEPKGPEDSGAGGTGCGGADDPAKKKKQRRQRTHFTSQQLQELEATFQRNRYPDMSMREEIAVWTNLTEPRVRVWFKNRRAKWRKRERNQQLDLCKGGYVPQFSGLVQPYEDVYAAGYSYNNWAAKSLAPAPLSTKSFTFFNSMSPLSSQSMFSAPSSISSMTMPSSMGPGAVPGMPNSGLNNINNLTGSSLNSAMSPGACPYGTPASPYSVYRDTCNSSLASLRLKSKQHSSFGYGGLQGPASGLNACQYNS
UniProt P63241: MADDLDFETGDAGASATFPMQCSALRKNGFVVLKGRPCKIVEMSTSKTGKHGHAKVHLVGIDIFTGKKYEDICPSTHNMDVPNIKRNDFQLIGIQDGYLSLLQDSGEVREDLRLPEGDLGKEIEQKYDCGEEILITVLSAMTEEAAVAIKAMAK
UniProt P61586, whole entry: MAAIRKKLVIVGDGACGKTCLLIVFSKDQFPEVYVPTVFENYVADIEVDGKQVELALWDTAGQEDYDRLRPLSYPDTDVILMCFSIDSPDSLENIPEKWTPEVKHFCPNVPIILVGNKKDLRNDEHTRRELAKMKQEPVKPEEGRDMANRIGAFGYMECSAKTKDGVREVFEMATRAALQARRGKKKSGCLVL
UniProt P84085: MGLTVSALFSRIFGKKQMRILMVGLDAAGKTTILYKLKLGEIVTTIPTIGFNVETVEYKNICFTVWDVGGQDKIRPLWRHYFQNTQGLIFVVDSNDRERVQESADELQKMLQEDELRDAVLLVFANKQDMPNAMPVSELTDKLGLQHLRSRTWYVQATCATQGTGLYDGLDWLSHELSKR
UniProt P78411: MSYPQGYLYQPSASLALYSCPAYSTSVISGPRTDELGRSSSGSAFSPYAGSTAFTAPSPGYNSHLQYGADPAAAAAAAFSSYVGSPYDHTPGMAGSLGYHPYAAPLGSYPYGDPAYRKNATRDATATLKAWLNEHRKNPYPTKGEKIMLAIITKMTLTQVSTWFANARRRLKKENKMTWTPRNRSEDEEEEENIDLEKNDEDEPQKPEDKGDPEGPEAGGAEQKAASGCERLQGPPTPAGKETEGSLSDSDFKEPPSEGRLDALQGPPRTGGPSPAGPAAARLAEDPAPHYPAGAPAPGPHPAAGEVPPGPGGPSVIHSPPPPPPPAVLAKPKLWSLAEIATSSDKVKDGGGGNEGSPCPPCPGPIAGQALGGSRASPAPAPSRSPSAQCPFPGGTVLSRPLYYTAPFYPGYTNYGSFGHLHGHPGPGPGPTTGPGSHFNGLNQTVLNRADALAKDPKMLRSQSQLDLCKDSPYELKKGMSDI
UniProt P55769: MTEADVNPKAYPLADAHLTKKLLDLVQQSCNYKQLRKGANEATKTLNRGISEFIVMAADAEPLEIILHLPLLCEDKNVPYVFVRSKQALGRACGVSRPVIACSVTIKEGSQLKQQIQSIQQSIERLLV
UniProt P60174, whole entry: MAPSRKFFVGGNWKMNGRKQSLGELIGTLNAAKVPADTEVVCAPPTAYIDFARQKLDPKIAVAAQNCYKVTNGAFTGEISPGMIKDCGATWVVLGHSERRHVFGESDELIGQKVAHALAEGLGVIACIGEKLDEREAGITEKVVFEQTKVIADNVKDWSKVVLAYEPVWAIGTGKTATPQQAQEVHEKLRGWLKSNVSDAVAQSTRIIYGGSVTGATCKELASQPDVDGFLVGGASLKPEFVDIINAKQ
UniProt P78345: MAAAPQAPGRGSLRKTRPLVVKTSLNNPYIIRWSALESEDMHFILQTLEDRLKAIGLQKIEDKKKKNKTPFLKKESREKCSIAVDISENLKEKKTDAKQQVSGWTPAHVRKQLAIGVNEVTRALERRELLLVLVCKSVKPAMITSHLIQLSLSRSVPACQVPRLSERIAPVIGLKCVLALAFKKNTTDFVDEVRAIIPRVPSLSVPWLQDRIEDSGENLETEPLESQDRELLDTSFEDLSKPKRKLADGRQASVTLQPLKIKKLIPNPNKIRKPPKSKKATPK
UniProt P61960, whole entry: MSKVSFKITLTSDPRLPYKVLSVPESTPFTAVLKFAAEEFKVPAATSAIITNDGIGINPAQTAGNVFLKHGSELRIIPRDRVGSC
UniProt P62191: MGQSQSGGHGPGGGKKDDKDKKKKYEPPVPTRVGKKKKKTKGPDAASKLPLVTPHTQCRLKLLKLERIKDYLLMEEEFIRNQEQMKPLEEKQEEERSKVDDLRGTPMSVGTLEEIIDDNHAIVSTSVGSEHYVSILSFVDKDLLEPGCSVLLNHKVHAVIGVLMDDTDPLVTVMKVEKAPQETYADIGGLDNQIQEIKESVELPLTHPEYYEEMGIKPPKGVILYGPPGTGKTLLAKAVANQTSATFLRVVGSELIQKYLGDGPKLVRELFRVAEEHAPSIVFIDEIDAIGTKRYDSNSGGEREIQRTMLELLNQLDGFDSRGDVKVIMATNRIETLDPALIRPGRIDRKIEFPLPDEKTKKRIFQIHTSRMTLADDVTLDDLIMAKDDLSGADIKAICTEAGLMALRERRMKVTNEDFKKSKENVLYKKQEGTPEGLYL
UniProt P63146, whole entry: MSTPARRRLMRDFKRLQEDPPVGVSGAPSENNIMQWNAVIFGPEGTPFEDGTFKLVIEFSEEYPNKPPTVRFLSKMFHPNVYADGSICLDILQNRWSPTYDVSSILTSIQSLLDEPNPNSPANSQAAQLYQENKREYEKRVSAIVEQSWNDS
UniProt P60520, whole entry: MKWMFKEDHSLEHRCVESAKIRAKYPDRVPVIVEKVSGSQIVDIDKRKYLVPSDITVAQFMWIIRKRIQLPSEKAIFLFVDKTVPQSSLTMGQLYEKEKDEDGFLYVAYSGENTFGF
UniProt P57721, whole entry: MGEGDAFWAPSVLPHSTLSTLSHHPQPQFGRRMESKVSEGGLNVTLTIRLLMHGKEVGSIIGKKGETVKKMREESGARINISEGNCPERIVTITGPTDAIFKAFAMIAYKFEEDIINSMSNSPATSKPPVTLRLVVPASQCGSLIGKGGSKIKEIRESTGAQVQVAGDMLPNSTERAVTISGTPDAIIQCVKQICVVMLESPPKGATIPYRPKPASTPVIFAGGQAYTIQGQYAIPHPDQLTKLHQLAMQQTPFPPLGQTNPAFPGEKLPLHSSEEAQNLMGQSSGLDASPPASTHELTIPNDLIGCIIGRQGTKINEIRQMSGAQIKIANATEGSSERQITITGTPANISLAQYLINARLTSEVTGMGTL
UniProt P61024, whole entry: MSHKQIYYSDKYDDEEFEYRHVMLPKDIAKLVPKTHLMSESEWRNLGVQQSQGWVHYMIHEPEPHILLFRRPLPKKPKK
UniProt P78330: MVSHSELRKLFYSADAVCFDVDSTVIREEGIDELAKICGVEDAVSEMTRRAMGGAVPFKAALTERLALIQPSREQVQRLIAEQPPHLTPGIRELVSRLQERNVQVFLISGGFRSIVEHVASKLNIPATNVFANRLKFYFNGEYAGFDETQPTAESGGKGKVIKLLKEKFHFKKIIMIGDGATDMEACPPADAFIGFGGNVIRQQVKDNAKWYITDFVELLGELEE
UniProt P61421, whole entry: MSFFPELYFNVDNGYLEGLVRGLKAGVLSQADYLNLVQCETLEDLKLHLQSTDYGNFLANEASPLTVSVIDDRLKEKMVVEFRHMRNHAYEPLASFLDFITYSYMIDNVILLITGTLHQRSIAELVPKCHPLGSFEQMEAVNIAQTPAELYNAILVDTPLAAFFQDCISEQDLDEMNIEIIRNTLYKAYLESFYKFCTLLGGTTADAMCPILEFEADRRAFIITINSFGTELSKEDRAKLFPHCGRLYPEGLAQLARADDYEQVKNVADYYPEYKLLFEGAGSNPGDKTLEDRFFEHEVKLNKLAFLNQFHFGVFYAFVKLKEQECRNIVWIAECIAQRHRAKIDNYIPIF
UniProt P78344: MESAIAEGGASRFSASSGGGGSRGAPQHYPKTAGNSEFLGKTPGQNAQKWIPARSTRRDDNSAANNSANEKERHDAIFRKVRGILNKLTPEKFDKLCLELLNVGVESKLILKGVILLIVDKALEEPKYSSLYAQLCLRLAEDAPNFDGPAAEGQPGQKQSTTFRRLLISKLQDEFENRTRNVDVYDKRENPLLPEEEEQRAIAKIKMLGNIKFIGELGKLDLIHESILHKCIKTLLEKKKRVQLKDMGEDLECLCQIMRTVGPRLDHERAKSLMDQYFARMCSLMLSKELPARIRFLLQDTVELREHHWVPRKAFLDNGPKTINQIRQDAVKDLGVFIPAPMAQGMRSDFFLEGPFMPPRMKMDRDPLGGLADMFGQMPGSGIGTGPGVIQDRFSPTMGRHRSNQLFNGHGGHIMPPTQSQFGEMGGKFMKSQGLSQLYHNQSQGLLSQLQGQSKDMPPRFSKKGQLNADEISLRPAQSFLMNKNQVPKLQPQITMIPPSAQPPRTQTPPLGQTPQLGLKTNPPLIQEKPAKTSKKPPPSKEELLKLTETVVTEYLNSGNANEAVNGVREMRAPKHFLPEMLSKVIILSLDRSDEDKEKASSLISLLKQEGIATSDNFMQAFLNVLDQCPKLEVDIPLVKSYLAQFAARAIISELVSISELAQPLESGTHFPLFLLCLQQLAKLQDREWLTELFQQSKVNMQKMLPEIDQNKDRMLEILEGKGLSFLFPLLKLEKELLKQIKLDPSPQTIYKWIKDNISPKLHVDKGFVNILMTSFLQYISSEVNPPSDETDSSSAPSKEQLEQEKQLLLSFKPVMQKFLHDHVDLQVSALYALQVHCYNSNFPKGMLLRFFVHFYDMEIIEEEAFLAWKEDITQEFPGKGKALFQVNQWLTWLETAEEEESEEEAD
UniProt P59923: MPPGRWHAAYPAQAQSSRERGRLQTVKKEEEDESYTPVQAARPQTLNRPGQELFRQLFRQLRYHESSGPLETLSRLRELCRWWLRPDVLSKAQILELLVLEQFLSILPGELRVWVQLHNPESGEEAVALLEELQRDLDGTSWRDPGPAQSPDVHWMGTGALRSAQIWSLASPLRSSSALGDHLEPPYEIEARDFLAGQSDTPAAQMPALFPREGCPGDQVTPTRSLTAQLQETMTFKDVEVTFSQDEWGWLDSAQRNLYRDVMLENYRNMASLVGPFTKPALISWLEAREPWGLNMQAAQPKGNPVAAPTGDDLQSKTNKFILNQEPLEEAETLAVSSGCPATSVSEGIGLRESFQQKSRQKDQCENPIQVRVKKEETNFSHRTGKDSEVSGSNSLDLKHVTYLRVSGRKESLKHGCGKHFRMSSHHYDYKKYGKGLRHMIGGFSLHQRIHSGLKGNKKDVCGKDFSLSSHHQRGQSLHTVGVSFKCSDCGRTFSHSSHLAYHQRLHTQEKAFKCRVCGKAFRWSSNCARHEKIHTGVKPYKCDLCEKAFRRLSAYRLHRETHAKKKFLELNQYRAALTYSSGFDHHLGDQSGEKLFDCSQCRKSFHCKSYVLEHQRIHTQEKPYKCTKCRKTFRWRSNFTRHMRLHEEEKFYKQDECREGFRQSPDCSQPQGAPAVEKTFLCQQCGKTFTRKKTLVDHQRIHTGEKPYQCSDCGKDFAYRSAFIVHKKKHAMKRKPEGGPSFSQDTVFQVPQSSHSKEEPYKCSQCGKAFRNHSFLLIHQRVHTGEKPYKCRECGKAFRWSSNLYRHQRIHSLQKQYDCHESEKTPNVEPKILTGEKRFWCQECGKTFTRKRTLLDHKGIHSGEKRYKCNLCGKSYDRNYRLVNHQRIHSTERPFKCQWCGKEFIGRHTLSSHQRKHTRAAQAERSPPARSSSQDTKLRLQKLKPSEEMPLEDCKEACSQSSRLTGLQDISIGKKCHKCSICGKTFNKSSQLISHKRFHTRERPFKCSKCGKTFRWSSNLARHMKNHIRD
UniProt P67936, whole entry: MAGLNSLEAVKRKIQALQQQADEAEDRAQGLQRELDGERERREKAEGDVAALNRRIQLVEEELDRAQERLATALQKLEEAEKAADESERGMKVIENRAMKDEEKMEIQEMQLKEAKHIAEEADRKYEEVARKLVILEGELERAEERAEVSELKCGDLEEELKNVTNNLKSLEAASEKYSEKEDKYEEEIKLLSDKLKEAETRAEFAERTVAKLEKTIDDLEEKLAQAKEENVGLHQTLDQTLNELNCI
UniProt P61077: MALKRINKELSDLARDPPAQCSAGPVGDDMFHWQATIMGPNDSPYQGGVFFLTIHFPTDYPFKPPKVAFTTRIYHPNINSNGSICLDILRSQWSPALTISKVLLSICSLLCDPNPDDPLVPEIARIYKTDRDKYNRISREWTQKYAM

What follows are targets tested with CN[C@@H]1C[C@H]2O[C@@](C)([C@@H]1OC)n1c3ccccc3c3c4c(c5c6ccccc6n2c5c31)C(=O)NC4 [staurosporine] (assay: log2 fold change of tryptic peptide abundance, ligand vs vehicle (limited proteolysis) (log2 ratio); higher = more trypsin-susceptible (destabilized)). Conditions: ligand concentration: 20 uM; sample: K562 cleared lysate; digestion: 4 min, 22 C (HT-PELSA RT4min, Orbitrap Astral).

Row | Target | log2 fold change
1 | UniProt P62875 (peptide sequence: LLNYAPLEK, peptide start residue: 59) | -0.0105
2 | RWDD2B (peptide sequence: HCHGDVCILNATEWVR, peptide start residue: 144) (UniProt P57060) | -0.52
3 | DRG2 (peptide sequence: YALVWGTSTK, peptide start residue: 332) (UniProt P55039) | -0.198
4 | ACTG1 (peptide sequence: EEEIAALVIDNGSGMCK, peptide start residue: 2) (UniProt P63261) | 0.37
5 | MFAP1 (peptide sequence: KNEEMEVMEVEDEGR, peptide start residue: 160) (UniProt P55081) | 0.47
6 | PITX1 (peptide sequence: LPEGLRPPPPPPHDMGPAFHLAR, peptide start residue: 13) (UniProt P78337) | -0.209
7 | UniProt P63241 (peptide sequence: LPEGDLGKEIEQK, peptide start residue: 114) | 0.288
8 | RHOA (peptide sequence: IGAFGYMECSAK, peptide start residue: 151) (UniProt P61586) | -0.306
9 | UniProt P84085 (peptide sequence: VQESADELQK, peptide start residue: 100) | -0.0342
10 | UniProt P78563 (peptide sequence: YDFLSESGESHAK, peptide start residue: 249) | -0.662
11 | PSMA6 (peptide sequence: LYQVEYAFK, peptide start residue: 22) (UniProt P60900) | -0.199
12 | UniProt P78411 (peptide sequence: TGGPSPAGPAAAR, peptide start residue: 270) | -0.11
13 | P62892 (peptide sequence: SSHKTFR, peptide start residue: 2) (UniProt P62891) | 0.326
14 | UniProt P55769 (peptide sequence: PVIACSVTIK, peptide start residue: 98) | -0.415
15 | TPI1 (peptide sequence: DCGATWVVLGHSERR, peptide start residue: 86) (UniProt P60174) | -0.451
16 | RPP38 (peptide sequence: SVKPAMITSHLIQLSLSR, peptide start residue: 137) (UniProt P78345) | 0.232
17 | UniProt P61960 (peptide sequence: ITLTSDPR, peptide start residue: 8) | -0.151
18 | UniProt P62191 (peptide sequence: YDSNSGGER, peptide start residue: 295) | -0.222

Row | Target | log2 fold change
19 | UniProt P63146 (peptide sequence: VSAIVEQSWNDS, peptide start residue: 141) | -0.25
20 | UniProt P60520 (peptide sequence: WMFKEDHSLEHR, peptide start residue: 3) | -0.126
21 | PCBP3 (peptide sequence: QICVVMLESPPK, peptide start residue: 193) (UniProt P57721) | -0.177
22 | UniProt P61024 (peptide sequence: THLMSESEWR, peptide start residue: 35) | 0.0914
23 | UniProt P63244 (peptide sequence: LWDLTTGTTTR, peptide start residue: 89) | -0.195
24 | DSTN (peptide sequence: KCSTPEEIK, peptide start residue: 22) (UniProt P60981) | 0.178
25 | PSPH (peptide sequence: LNIPATNVFANR, peptide start residue: 123) (UniProt P78330) | 0.254
26 | UniProt P63272 (peptide sequence: ALETVPKDLR, peptide start residue: 2) | 0.259
27 | ATP6V0D1 (peptide sequence: LLFEGAGSNPGDKTLEDR, peptide start residue: 276) (UniProt P61421) | 0.283
28 | MRPS9 (peptide sequence: QIEEFNIGKR, peptide start residue: 77) (UniProt P82933) | 0.361
29 | UniProt P62701 (peptide sequence: ITPEEAKYK, peptide start residue: 114) | 0.241
30 | SESN2 (peptide sequence: MYNLFWR, peptide start residue: 439) (UniProt P58004) | -0.161
31 | EIF4G2 (peptide sequence: TNPPLIQEK, peptide start residue: 521) (UniProt P78344) | -0.477
32 | ZNF445 (peptide sequence: LKPSEEMPLEDCKEACSQSSR, peptide start residue: 944) (UniProt P59923) | 0.394
33 | TPM4 (peptide sequence: AEGDVAALNRR, peptide start residue: 45) (UniProt P67936) | 0.264
34 | UniProt P61077 (peptide sequence: IYKTDRDK, peptide start residue: 126) | 0.639
35 | UniProt P83731 (peptide sequence: TDGKVFQFLNAKCESAFLSK, peptide start residue: 24) | 0.481
36 | UniProt P60866 (peptide sequence: TPVEPEVAIHRIR, peptide start residue: 9) | 0.914

Given comma-delimited: entries from further up
Row,Target,log2 fold change
29,"UniProt P62701 (peptide sequence: ITPEEAKYK, peptide start residue: 114)",0.241
30,"SESN2 (peptide sequence: MYNLFWR, peptide start residue: 439) (UniProt P58004)",-0.161
